This is one part of the list.
Assays:
Assay in all cases: log2 fold change, soluble protein after heating vs DMSO (PISA); higher = thermal stabilisation; K562 cells, 10 uM, 30 min; active = over 0.2 and 3.5 SD of the protein, either way, in both replicates (recomputed)
[1] = compound: COC1=CC=C(C=C1)CN2C=CC3=C2C=C(C=C3)C(=O)NO
How it was run: (§1)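 Aliquots of K562 cells (2×10^6 cells/mL) treated with 10 μM compound for 30 min were heated for 3 min over 48°C-58°C. After pooling and extraction in PBS with 0.5% NP-40 at 4°C, soluble protein from a 21,000xg, 90 min spin was quantified by TMTpro 16plex LC-MS/MS with channel sums equalised. Thermal stability is expressed against control samples, from duplicates, as a log2 fold change.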

Chains of the proteins cited; added tags and fusions are not shown. Lines headed by an entry give the natural chain unless they say otherwise; changes in a name come on top.
UniProt Q7Z3K3: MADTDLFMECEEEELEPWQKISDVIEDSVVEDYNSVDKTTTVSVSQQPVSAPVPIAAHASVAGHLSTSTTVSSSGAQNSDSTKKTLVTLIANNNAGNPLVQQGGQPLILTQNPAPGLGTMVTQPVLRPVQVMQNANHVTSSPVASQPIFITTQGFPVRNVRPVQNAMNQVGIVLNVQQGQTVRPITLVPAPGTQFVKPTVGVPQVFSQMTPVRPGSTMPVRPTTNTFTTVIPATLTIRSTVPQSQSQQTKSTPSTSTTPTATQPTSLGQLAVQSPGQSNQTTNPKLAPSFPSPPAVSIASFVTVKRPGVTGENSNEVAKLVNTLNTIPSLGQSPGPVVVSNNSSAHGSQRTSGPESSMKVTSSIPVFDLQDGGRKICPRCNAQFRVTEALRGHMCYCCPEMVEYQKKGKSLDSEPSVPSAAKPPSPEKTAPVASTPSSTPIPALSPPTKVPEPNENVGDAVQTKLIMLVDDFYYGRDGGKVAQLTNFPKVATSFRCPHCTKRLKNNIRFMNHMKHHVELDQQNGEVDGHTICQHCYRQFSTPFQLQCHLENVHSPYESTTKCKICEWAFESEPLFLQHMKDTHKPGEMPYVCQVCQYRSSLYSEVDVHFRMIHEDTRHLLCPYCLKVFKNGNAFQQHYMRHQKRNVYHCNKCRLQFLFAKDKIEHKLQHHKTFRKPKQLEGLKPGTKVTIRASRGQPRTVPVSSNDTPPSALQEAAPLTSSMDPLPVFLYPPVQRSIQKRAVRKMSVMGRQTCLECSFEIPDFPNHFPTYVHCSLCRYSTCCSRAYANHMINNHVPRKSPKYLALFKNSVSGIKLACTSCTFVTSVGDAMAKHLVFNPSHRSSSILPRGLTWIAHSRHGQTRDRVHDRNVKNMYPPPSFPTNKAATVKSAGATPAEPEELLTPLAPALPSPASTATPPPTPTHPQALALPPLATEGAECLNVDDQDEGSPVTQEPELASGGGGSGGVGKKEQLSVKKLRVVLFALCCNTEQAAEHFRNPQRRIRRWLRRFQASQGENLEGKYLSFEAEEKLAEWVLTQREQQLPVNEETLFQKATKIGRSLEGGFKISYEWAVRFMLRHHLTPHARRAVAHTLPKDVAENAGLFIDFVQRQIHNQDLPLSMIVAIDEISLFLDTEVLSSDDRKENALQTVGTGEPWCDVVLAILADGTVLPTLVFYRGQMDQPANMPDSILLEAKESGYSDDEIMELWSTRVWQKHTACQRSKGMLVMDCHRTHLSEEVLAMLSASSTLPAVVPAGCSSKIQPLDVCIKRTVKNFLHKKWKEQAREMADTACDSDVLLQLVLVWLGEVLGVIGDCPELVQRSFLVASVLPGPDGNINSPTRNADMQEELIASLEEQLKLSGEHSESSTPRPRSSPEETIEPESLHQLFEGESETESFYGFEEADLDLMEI
UniProt Q8IY17: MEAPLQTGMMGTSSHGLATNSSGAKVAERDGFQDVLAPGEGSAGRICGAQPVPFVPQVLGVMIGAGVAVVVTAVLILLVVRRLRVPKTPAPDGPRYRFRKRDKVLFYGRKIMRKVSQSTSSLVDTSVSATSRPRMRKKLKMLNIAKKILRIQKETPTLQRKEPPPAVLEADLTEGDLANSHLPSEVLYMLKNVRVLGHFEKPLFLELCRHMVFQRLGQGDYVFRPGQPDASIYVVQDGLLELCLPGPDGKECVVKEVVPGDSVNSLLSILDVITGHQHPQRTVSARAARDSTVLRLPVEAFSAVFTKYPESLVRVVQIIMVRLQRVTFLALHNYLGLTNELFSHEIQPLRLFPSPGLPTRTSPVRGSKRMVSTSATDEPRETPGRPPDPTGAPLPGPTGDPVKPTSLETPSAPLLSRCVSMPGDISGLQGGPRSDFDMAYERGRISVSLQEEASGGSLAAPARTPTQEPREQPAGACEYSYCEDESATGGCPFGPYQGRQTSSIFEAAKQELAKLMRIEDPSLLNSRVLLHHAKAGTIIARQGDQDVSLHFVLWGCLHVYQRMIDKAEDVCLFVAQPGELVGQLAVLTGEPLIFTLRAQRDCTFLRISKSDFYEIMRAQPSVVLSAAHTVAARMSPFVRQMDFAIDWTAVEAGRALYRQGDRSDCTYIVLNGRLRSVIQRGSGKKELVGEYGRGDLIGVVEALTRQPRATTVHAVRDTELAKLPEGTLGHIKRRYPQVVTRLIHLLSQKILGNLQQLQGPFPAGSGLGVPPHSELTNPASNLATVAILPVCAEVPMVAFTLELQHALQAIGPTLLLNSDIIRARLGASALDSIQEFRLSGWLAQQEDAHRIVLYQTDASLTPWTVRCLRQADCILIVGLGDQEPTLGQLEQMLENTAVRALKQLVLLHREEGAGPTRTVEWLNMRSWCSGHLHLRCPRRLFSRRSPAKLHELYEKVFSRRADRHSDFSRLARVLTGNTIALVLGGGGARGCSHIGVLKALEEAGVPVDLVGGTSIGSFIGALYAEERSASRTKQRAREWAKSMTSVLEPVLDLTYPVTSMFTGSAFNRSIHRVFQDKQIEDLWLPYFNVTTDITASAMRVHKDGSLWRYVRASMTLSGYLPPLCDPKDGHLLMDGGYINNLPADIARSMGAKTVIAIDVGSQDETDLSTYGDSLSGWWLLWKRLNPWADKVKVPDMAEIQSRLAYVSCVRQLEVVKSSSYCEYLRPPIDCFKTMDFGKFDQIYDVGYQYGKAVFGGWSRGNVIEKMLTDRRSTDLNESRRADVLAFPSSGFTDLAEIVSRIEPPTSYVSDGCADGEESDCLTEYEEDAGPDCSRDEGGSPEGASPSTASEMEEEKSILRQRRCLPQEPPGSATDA
UniProt Q9H9Y6, whole entry, looked up: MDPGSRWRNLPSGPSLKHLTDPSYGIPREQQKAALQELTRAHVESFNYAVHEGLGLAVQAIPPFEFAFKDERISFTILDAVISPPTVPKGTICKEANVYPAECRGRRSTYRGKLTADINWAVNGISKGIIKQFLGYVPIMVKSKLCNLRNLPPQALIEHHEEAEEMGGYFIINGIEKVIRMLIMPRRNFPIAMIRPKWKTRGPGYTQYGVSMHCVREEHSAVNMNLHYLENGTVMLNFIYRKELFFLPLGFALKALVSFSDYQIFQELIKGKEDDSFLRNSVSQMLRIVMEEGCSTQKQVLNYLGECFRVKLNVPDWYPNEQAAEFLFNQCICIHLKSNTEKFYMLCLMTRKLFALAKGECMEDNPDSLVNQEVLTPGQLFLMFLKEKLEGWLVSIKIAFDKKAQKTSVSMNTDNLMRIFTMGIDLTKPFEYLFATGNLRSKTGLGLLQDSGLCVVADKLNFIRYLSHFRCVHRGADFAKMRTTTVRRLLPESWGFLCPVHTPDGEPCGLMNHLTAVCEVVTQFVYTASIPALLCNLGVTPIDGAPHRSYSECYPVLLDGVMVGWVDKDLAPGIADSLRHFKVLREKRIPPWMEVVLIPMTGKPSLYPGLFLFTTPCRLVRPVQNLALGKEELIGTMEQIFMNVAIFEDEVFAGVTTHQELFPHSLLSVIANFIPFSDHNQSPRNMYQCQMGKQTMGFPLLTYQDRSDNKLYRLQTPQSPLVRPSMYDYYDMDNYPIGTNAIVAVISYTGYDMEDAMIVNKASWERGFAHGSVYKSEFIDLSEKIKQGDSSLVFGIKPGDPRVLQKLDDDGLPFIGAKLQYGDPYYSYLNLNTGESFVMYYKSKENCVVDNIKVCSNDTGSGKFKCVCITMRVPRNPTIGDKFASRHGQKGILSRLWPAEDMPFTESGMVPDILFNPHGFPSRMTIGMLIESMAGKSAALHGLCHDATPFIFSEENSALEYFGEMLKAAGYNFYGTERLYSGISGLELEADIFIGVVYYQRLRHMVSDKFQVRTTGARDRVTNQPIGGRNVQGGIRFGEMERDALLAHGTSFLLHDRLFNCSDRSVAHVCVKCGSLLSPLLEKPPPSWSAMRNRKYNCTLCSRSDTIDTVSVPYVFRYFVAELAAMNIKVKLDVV
UniProt Q6EEV4: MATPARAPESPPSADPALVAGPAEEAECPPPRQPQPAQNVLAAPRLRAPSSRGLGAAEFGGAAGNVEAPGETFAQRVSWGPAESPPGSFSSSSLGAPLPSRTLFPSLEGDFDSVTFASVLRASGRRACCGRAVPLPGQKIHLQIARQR
UniProt P00747, whole entry, looked up: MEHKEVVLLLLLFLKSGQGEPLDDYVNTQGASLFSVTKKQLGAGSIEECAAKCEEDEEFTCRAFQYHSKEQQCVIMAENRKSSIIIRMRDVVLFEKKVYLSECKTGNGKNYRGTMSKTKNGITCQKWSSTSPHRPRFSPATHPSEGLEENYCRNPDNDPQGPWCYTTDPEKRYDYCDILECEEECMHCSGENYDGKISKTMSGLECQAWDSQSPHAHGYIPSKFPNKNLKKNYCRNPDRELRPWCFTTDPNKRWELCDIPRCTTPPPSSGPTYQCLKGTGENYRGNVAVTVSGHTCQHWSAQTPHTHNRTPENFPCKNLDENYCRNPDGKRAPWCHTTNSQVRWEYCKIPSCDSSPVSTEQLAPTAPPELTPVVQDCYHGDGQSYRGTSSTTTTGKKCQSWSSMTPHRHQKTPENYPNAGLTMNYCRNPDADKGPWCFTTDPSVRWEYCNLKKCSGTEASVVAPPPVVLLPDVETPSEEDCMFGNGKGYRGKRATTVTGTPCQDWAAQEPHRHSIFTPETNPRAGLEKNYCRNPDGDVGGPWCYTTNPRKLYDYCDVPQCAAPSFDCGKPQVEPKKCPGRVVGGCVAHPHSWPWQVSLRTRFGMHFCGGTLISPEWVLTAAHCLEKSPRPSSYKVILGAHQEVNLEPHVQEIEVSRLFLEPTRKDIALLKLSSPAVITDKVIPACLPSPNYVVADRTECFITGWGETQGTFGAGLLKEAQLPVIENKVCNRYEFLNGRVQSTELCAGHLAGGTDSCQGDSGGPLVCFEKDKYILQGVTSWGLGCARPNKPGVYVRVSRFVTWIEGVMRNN
UniProt P55058, whole entry, looked up: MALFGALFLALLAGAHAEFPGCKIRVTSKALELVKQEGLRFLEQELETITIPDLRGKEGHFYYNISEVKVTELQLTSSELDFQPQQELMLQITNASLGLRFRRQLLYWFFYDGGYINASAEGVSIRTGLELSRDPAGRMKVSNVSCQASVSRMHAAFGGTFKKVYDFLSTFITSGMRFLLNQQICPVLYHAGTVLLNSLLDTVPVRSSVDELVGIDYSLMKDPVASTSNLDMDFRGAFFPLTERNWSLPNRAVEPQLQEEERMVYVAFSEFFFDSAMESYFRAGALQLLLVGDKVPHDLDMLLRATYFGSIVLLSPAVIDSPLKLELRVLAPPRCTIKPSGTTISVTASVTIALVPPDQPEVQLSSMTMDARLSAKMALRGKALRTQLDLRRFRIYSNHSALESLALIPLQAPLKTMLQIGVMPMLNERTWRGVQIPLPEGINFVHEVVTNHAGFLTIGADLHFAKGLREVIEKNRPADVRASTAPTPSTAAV
UniProt P54278: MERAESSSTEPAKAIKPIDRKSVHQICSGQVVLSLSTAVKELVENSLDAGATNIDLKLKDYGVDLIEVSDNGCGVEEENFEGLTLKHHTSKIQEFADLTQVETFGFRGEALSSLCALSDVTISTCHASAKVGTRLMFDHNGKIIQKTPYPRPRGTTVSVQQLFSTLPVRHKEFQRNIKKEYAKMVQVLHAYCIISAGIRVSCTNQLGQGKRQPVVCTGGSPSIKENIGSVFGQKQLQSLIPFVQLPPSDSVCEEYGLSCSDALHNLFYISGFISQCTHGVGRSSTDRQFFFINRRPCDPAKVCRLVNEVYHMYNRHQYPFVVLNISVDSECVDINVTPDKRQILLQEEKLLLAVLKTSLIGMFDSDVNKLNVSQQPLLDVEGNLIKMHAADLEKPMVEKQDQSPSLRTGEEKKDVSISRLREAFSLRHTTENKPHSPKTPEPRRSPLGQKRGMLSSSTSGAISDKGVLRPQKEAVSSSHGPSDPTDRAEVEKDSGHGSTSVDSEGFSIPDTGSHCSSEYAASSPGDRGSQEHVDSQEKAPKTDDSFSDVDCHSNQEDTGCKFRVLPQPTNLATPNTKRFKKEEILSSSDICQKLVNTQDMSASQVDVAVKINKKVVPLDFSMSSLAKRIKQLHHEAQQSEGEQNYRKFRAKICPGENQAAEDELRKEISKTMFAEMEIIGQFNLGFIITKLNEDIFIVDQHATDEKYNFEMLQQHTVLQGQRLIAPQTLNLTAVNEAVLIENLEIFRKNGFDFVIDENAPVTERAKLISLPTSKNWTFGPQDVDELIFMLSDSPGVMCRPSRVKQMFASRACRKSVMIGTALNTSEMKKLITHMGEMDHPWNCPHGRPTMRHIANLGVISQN
UniProt P41247: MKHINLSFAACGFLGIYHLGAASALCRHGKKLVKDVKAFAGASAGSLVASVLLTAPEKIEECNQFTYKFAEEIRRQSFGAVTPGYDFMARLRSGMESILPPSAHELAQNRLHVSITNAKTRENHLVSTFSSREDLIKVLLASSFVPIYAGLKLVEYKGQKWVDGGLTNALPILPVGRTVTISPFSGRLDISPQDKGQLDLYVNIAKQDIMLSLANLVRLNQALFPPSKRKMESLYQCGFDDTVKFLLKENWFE

[2] = compound: CON(C)C(=O)N1N=C(c2cc(F)ccc2F)S[C@@]1(CCCN)c1ccccc1 [filanesib]
How it was run: as §1

[3] = compound: CO[C@H]1C[C@@H]2CC[C@@H](C)[C@@](O)(O2)C(=O)C(=O)N2CCCC[C@H]2C(=O)O[C@H]([C@H](C)C[C@@H]2CC[C@H](n3cnnn3)[C@H](OC)C2)CC(=O)[C@H](C)/C=C(\C)[C@@H](O)[C@@H](OC)C(=O)[C@H](C)C[C@H](C)/C=C/C=C/C=C/1C [zotarolimus]
How it was run: as §1

[4] = compound: COc1cc(C(=O)O)ccc1NC(=O)[C@@H]1N[C@@H](CC(C)(C)C)[C@](C#N)(c2ccc(Cl)cc2F)[C@H]1c1cccc(Cl)c1F [idasanutlin]
How it was run: as §1

[5] = compound: COc1cc2nc(-c3cc(F)ccc3O)nc(N[C@@H]3CNC[C@H]3C(C)(C)O)c2cc1OC
How it was run: as §1

[6] = compound: CS(=O)(=O)CCNCc1ccc(-c2ccc3ncnc(Nc4ccc(OCc5cccc(F)c5)c(Cl)c4)c3c2)o1 [lapatinib]
How it was run: as §1

[7] = compound: CS(=O)(=O)N1CCN(Cc2cc3nc(-c4cccc5[nH]ncc45)nc(N4CCOCC4)c3s2)CC1 [pictilisib]
How it was run: as §1

[8] = compound: CS(=O)(=O)c1ccc(-c2cnc(N)c(C(=O)Nc3ccccc3)n2)cc1
How it was run: as §1

[9] = compound: C[C@@H](Oc1cc(-c2cnn(C3CCNCC3)c2)cnc1N)c1c(Cl)ccc(F)c1Cl [crizotinib]
How it was run: as §1

[10] = compound: C[C@@H]1COCCN1C2=NC(=NC(=C2)C3(CC3)S(=O)(=O)C)C4=C5C=CNC5=CC=C4
How it was run: as §1

[11] = compound: C[C@H](C1=CC=C(C=C1)C(=O)NC2=C3C=CNC3=NC=C2)N
How it was run: as §1

[12] = compound: Cc1cc(Nc2cc(CN3CCOCC3)c3nc(C)c(Cc4ccc(Cl)cc4F)n3n2)n[nH]1 [gandotinib]
How it was run: as §1

[13] = compound: Cc1cc(SCc2sc(-c3ccc(C(F)(F)F)cc3)nc2C)ccc1OCC(=O)O
How it was run: as §1

[14] = compound: Cc1ccc(-n2nc(C(C)(C)C)cc2NC(=O)Nc2ccc(OCCN3CCOCC3)c3ccccc23)cc1 [doramapimod]
How it was run: as §1

[15] = compound: Cc1ccc(C(=O)N(CCCN)[C@@H](c2nc3cc(Cl)ccc3c(=O)n2Cc2ccccc2)C(C)C)cc1 [ispinesib]
How it was run: as §1

[16] = compound: COc1cc(Nc2ncc3c(n2)-c2ccc(Cl)cc2C(c2c(F)cccc2OC)=NC3)ccc1C(=O)O [alisertib]
How it was run: as §1

[17] = compound: COc1cc2ncnc(Nc3ccc(F)c(Cl)c3)c2cc1OCCCN1CCOCC1 [gefitinib]
How it was run: as §1

[18] = compound: COc1cccc2cc(-c3nc([C@H]4CC[C@H](C(=O)O)CC4)n4ncnc(N)c34)[nH]c12
How it was run: as §1

[19] = compound: C[C@H](Nc1ncnc2nc[nH]c12)c1cc2cccc(Cl)c2c(=O)n1-c1ccccc1 [duvelisib]
How it was run: as §1

[20] = compound: Cc1cc(Nc2cc(N3CCN(C)CC3)nc(Sc3ccc(NC(=O)C4CC4)cc3)n2)n[nH]1 [tozasertib]
How it was run: as §1

Target	log2 fold change [1]	log2 fold change [2]	log2 fold change [3]	log2 fold change [4]	log2 fold change [5]	log2 fold change [6]	log2 fold change [7]	log2 fold change [8]	log2 fold change [9]	log2 fold change [10]	log2 fold change [11]	log2 fold change [12]	log2 fold change [13]	log2 fold change [14]	log2 fold change [15]	log2 fold change [16]	log2 fold change [17]	log2 fold change [18]	log2 fold change [19]	log2 fold change [20]
POGZ (UniProt Q7Z3K3)	inactive: -0.066	inactive: -0.021	inactive: 0.008	inactive: 0.01	inactive: 0.095	inactive: -0.086	inactive: 0.082	inactive: 0.044	inactive: -0.019	inactive: 0.242	inactive: 0.01	inactive: 0.143	inactive: 0.142	inactive: 0.053	inactive: -0.221					
PNPLA6 (UniProt Q8IY17)	inactive: -0.008		inactive: 0.206	inactive: -0.019	inactive: -0.355	inactive: 0.095			inactive: -0.061	inactive: -0.087	inactive: 0.153		inactive: -0.125	inactive: 0.216	inactive: 0.347	inactive: 0.019	inactive: 0.034	inactive: -0.041	inactive: 0.058	inactive: 0.142
POLRMT (UniProt O00411)	inactive: -0.005	inactive: 0.071						inactive: -0.082	inactive: -0.18	inactive: -0.097			inactive: -0.069	inactive: 0.179					inactive: 0.017	
PPIP5K2 (UniProt H0Y9S9)	inactive: 0.178	inactive: -0.178	inactive: 0.035		inactive: -0.184	inactive: 0.065		inactive: 0.181	inactive: 0.042	inactive: -0.018	inactive: -0.202		inactive: -0.093	inactive: -0.049	inactive: 0.095	inactive: -0.168	inactive: 0.049	inactive: -0.099	inactive: -0.021	inactive: -0.009
POLR2A (UniProt P24928)	inactive: -0.005	inactive: -0.021	inactive: -0.026	inactive: -0.054	active: 0.258	inactive: 0	inactive: 0.05	inactive: 0.027	inactive: 0.231	inactive: 0.049	inactive: 0.21	active: 0.321	inactive: 0.023	inactive: -0.009	inactive: 0.006	inactive: 0.001	inactive: 0.015	inactive: 0.042		
PNKP (UniProt Q96T60)	inactive: -0.185	inactive: 0.052	inactive: -0.067	inactive: -0.144	inactive: 0.421	inactive: -0.135	inactive: 0.273	inactive: 0.135	inactive: -0.016		inactive: 0.106	inactive: 0.158	inactive: 0.133	inactive: 0.017	inactive: 0.007				inactive: 0.021	inactive: -0.328
POTEI (UniProt P0CG38)	inactive: 0.033	inactive: 0.04	inactive: 0.025	inactive: -0.007	inactive: -0.003	inactive: -0.006	inactive: 0.012	inactive: -0.009	inactive: 0.109	inactive: 0.241	inactive: -0.096	inactive: -0.019	inactive: -0.021	active: -0.739	inactive: 0.131	inactive: 0.037	inactive: 0.015	inactive: 0.067		
POLR1B isoform 3 (UniProt Q9H9Y6)	inactive: -0.097	inactive: 0.085	inactive: 0.081				inactive: -0.048	inactive: 0.048	inactive: -0.014	inactive: 0.08	inactive: 0.292	inactive: -0.061	inactive: 0.043	inactive: 0.133	inactive: 0.009	inactive: 0.155	inactive: 0.067	inactive: 0	inactive: -0.065	inactive: -0.012
POLR2E (UniProt P19388)	inactive: 0.095		inactive: -0.065	inactive: -0.061	active: 0.291	inactive: -0.013	inactive: 0.063		inactive: 0.112	inactive: -0.027	inactive: 0.14	inactive: 0.157	inactive: 0.089	inactive: -0.078	inactive: -0.058	inactive: -0.21	inactive: 0.007	inactive: 0.029		
POLR2C (UniProt P19387)	inactive: -0.04	inactive: 0.034	inactive: -0.012	inactive: -0.074	inactive: -0.022	inactive: 0.099		inactive: 0.019	inactive: 0.127	inactive: -0.062	inactive: 0.163		inactive: 0.113	inactive: 0.012	inactive: 0.034	inactive: 0.013	inactive: -0.045	inactive: 0.086		
POLA1 (UniProt P09884)	inactive: 0.053	inactive: -0.023	inactive: 0.008	inactive: 0.003	inactive: 0.016	inactive: -0.005	inactive: 0.033	inactive: 0.01	inactive: -0.041	inactive: 0.065	inactive: -0.048	inactive: -0.069	inactive: 0.09	inactive: -0.029	inactive: -0.036	inactive: -0.053	inactive: 0.015	inactive: -0.008		
POMT1 (UniProt Q9Y6A1)	inactive: -0.393			inactive: 0.124					inactive: 0	inactive: 0.032			inactive: -0.012	inactive: 0.265		inactive: 0.068		inactive: 0.133	inactive: 0.14	inactive: -0.039
POMGNT2 (UniProt Q8NAT1)	inactive: -0.095	inactive: 0.108	inactive: 0.152	inactive: 0.108	inactive: 0.079	inactive: -0.061	inactive: -0.105	inactive: 0.012	inactive: -0.036		inactive: -0.019	inactive: 0.087	inactive: -0.018	inactive: 0.027		inactive: -0.251		inactive: -0.06	inactive: 0.021	
POLR2M (UniProt Q6EEV4)	inactive: -0.046	inactive: 0.076	inactive: 0.034	inactive: 0.046	inactive: -0.063	inactive: -0.084		inactive: -0.03	inactive: -0.021	inactive: 0.16	inactive: -0.078		inactive: -0.061	inactive: -0.04		inactive: -0.144	inactive: 0.076	inactive: -0.033		
PLG (UniProt P00747)	inactive: -0.251	inactive: 0.24	inactive: -0.053	inactive: 0.31	inactive: 0.016	inactive: -0.062	inactive: -0.073	inactive: -0.025	inactive: 0.038		inactive: 0.072	inactive: -0.035	inactive: -0.257	inactive: 0.089			inactive: -0.041		inactive: -0.259	inactive: -0.148
PLTP (UniProt P55058)	inactive: -0.18	inactive: 0.129	inactive: 0.022		inactive: -0.424	inactive: 0.045	inactive: 0.089	inactive: -0.098	inactive: 0.165	inactive: -0.082	inactive: 0.195	inactive: 0.038	inactive: 0.155	inactive: -0.097		inactive: -0.034	inactive: -0.096	inactive: 0.037	inactive: 0.019	
PMS2 (UniProt P54278)	inactive: -0.883	inactive: 0.321	inactive: -0.152	inactive: -0.405				inactive: -0.396	inactive: 0.035	inactive: 0.205	inactive: 0.237		inactive: -0.065	inactive: 0.509	inactive: -0.07				inactive: -0.021	
PLS3 (UniProt H7C4N2)	inactive: -0.281	inactive: 0.051						inactive: 0.193	inactive: 0.038	inactive: -0.196				inactive: 0.35						
POMT2 (UniProt Q9UKY4)	inactive: -0.023		inactive: -0.07	inactive: -0.072	inactive: -0.208	inactive: 0.2			inactive: -0.014		inactive: 0.105		inactive: 0.005	inactive: 0.146	inactive: -0.116				inactive: 0.154	inactive: -0.121
POLR2K (UniProt P53803)	inactive: -0.052	inactive: 0.071	inactive: -0.05	inactive: -0.101	inactive: 0.134	inactive: 0.003	inactive: 0.117	inactive: 0.029	inactive: 0.18	inactive: 0.074	inactive: 0.098	inactive: -0.011	inactive: 0.001	inactive: -0.059	inactive: 0.029	inactive: -0.005	inactive: -0.012	inactive: -0.213		
PNPLA4 (UniProt P41247)	inactive: 0.041	inactive: -0.184	inactive: -0.142	inactive: 0.003	inactive: -0.133	inactive: -0.049		inactive: 0.319	active: -0.651		inactive: 0.559		inactive: 0.117	active: 0.895	inactive: -0.093	inactive: 0.026	inactive: 0.015	inactive: 0.113		
PLXNA3 (UniProt P51805)	inactive: 0.134	inactive: 0.017		inactive: -0.002			inactive: 0.193	inactive: 0.023	inactive: -0.248	inactive: 0.027		inactive: 0.047	inactive: -0.148	inactive: -0.011		inactive: -0.057		inactive: 0.088	inactive: 0.334	inactive: -0.11

Random excerpt: 2 entries already listed.
Target	log2 fold change [1]	log2 fold change [2]	log2 fold change [3]	log2 fold change [4]	log2 fold change [5]	log2 fold change [6]	log2 fold change [7]	log2 fold change [8]	log2 fold change [9]	log2 fold change [10]	log2 fold change [11]	log2 fold change [12]	log2 fold change [13]	log2 fold change [14]	log2 fold change [15]	log2 fold change [16]	log2 fold change [17]	log2 fold change [18]	log2 fold change [19]	log2 fold change [20]
POMT2 (UniProt Q9UKY4)	inactive: -0.023		inactive: -0.07	inactive: -0.072	inactive: -0.208	inactive: 0.2			inactive: -0.014		inactive: 0.105		inactive: 0.005	inactive: 0.146	inactive: -0.116				inactive: 0.154	inactive: -0.121
PNKP (UniProt Q96T60)	inactive: -0.185	inactive: 0.052	inactive: -0.067	inactive: -0.144	inactive: 0.421	inactive: -0.135	inactive: 0.273	inactive: 0.135	inactive: -0.016		inactive: 0.106	inactive: 0.158	inactive: 0.133	inactive: 0.017	inactive: 0.007				inactive: 0.021	inactive: -0.328
